PubChem BioAssay AID1259254 – NCATS, 2017
Shown is one part, drawn at random, of about 59,000 reagents. Of all reagents, about 1,550 (2.6%) were called active. 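G2 share is only a proxy for re-replication; each gene was hit by three separate siRNAs, and active genes were retested.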 The numbers tell different reagents against one gene apart. Further read-outs or replicates are left out here. Not stated in the record: the amount of reagent.

- Screen: 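Finding genes that stop cells copying their DNA twice in one cycle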 (primary screen)
- Cells: human HCT116 colorectal cancer cells
- Knock-down reagent: single siRNA against human genes
- Timing: 3 days
- Measured: 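Nuclei stained with Hoechst and imaged; cell-cycle phase assigned by DNA content; G2 share scaled per plate, non-targeting siRNA 0%, GMNN siRNA 100%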
- Reading the numbers: G2 robust z-score and G2 cells, % of GMNN control: higher = more G2 cells, more excess DNA replication
- Rule for the call: 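Active siRNAs have a G2 robust z of 5 or more median absolute deviations over the median, which in these data means about 38% or higher of GMNN control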

Target gene | reagent | G2 robust z-score | G2 cells, % of GMNN control | activity call
LYRM2 (GeneID 57226) | 1 | 0.355 | 5.47 | inactive
LYRM2 (GeneID 57226) | 2 | -0.919 | -3.5 | inactive
LYRM2 (GeneID 57226) | 3 | 0.269 | 4.86 | inactive
EBPL (GeneID 84650) | 1 | -0.228 | 1.36 | inactive
EBPL (GeneID 84650) | 2 | 1.09 | 10.6 | inactive
EBPL (GeneID 84650) | 3 | -0.675 | -1.78 | inactive
DCUN1D1 (GeneID 54165) | 1 | 0.619 | 7.32 | inactive
DCUN1D1 (GeneID 54165) | 2 | -0.535 | -0.794 | inactive
DCUN1D1 (GeneID 54165) | 3 | -0.166 | 1.8 | inactive
TFCP2L1 (GeneID 29842) | 1 | 1.93 | 16.6 | inactive
TFCP2L1 (GeneID 29842) | 2 | -0.492 | -0.492 | inactive
TFCP2L1 (GeneID 29842) | 3 | 0.719 | 8.02 | inactive
SORD (GeneID 6652) | 1 | 3.42 | 27 | inactive
SORD (GeneID 6652) | 2 | 1.83 | 15.8 | inactive
SORD (GeneID 6652) | 3 | -0.611 | -1.33 | inactive
EIF2S1 (GeneID 1965) | 1 | 3.47 | 27.4 | inactive
EIF2S1 (GeneID 1965) | 2 | 5.45 | 41.3 | active
EIF2S1 (GeneID 1965) | 3 | 4.25 | 32.9 | inactive
TFE3 (GeneID 7030) | 1 | -1.07 | -4.55 | inactive
TFE3 (GeneID 7030) | 2 | 0.516 | 6.6 | inactive
TFE3 (GeneID 7030) | 3 | -0.0756 | 2.44 | inactive
OR51D1 (GeneID 390038) | 1 | 0.674 | 7.71 | inactive
OR51D1 (GeneID 390038) | 2 | -0.267 | 1.09 | inactive
OR51D1 (GeneID 390038) | 3 | -0.877 | -3.2 | inactive
KIF18A (GeneID 81930) | 1 | 0.21 | 4.45 | inactive
KIF18A (GeneID 81930) | 2 | -0.274 | 1.04 | inactive
KIF18A (GeneID 81930) | 3 | -0.391 | 0.219 | inactive
DLL4 (GeneID 54567) | 1 | 1.33 | 12.3 | inactive
DLL4 (GeneID 54567) | 2 | -0.924 | -3.53 | inactive
DLL4 (GeneID 54567) | 3 | 2.91 | 23.4 | inactive

Reformatted: results already given
Target gene	reagent	G2 robust z-score	G2 cells, % of GMNN control	activity call
EIF2S1 (GeneID 1965)	1	3.47	27.4	inactive
EIF2S1 (GeneID 1965)	2	5.45	41.3	active
EIF2S1 (GeneID 1965)	3	4.25	32.9	inactive
TFE3 (GeneID 7030)	1	-1.07	-4.55	inactive
TFE3 (GeneID 7030)	2	0.516	6.6	inactive
TFE3 (GeneID 7030)	3	-0.0756	2.44	inactive
OR51D1 (GeneID 390038)	1	0.674	7.71	inactive

The list goes on:
Target gene | reagent | G2 robust z-score | G2 cells, % of GMNN control | activity call
NTPCR (GeneID 84284) | 1 | 0.412 | 5.87 | inactive
NTPCR (GeneID 84284) | 2 | -0.407 | 0.107 | inactive
NTPCR (GeneID 84284) | 3 | -0.815 | -2.77 | inactive
COMMD8 (GeneID 54951) | 1 | -0.943 | -3.66 | inactive
COMMD8 (GeneID 54951) | 2 | -0.00309 | 2.95 | inactive
COMMD8 (GeneID 54951) | 3 | -0.761 | -2.39 | inactive
GALNT13 (GeneID 114805) | 1 | -0.207 | 1.51 | inactive
GALNT13 (GeneID 114805) | 2 | -0.734 | -2.19 | inactive
GALNT13 (GeneID 114805) | 3 | -0.882 | -3.24 | inactive
TRIL (GeneID 9865) | 1 | -1.16 | -5.16 | inactive
TRIL (GeneID 9865) | 2 | -0.733 | -2.19 | inactive
TRIL (GeneID 9865) | 3 | 0.175 | 4.2 | inactive
INMT (GeneID 11185) | 1 | 0.256 | 4.77 | inactive
INMT (GeneID 11185) | 2 | 1.24 | 11.7 | inactive
INMT (GeneID 11185) | 3 | 1.47 | 13.3 | inactive
GUCA2A (GeneID 2980) | 1 | -0.986 | -3.97 | inactive
GUCA2A (GeneID 2980) | 2 | -0.464 | -0.299 | inactive
GUCA2A (GeneID 2980) | 3 | -0.877 | -3.2 | inactive
UBE2I (GeneID 7329) | 1 | 6.31 | 47.4 | active
UBE2I (GeneID 7329) | 2 | -0.0836 | 2.38 | inactive
UBE2I (GeneID 7329) | 3 | 2.35 | 19.5 | inactive
SLC25A46 (GeneID 91137) | 1 | -0.179 | 1.71 | inactive
SLC25A46 (GeneID 91137) | 2 | 0.112 | 3.76 | inactive
SLC25A46 (GeneID 91137) | 3 | -0.183 | 1.68 | inactive
SLTM (GeneID 79811) | 1 | -0.566 | -1.02 | inactive
SLTM (GeneID 79811) | 2 | 1.6 | 14.2 | inactive
SLTM (GeneID 79811) | 3 | -0.0369 | 2.71 | inactive
CACUL1 (GeneID 143384) | 1 | -0.87 | -3.15 | inactive
CACUL1 (GeneID 143384) | 2 | 1.32 | 12.2 | inactive
CACUL1 (GeneID 143384) | 3 | -0.672 | -1.76 | inactive
AZU1 (GeneID 566) | 1 | -0.243 | 1.25 | inactive
AZU1 (GeneID 566) | 2 | 1.16 | 11.1 | inactive
AZU1 (GeneID 566) | 3 | -0.58 | -1.11 | inactive
PPID (GeneID 5481) | 1 | -0.408 | 0.0985 | inactive
PPID (GeneID 5481) | 2 | 0.701 | 7.9 | inactive
PPID (GeneID 5481) | 3 | -0.562 | -0.984 | inactive
LIFR (GeneID 3977) | 1 | -0.803 | -2.68 | inactive
LIFR (GeneID 3977) | 2 | -0.837 | -2.92 | inactive
LIFR (GeneID 3977) | 3 | 0.0321 | 3.19 | inactive
